Binding data for 2 molecules are collected here from publication PMC9016031.

These are yes or no findings as the source states them, for the method shown. Binding seen in cells or lysates may run through a third protein. Some entries that bind do so weakly or less than the wild type.

The target of assay [1] is T1, truncated PF4–YFPn with 1–31 aa signal peptide deleted (UniProt P02776).
T1 sequence: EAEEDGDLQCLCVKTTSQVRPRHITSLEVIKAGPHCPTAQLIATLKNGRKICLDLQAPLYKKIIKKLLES
In words: split reporter; BiFC of single pairs: HTC75 cells expressing PF4–YFPn (full-length or truncated) and a YFPc-tagged partner, yellow fluorescence read by flow cytometry (positive rate); non-fused YFPc as negative control; n = 3. On the technique in general: A flow cytometer gives signals particle by particle.

The target of assay [2] is T2, PF4–YFPn (full-length / intact platelet factor 4) (UniProt P02776).
T2 sequence: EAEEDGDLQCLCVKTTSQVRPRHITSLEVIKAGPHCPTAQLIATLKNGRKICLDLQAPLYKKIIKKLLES
The experiment in a line: split reporter; HT-BiFC screen: HTC-75 cells stably expressing PF4–YFPn bait infected with YFPc-tagged prey retroviruses from the human ORFeome v7.1 library (18,414 ORFs); fluorescent cells sorted in rounds until > 90% positive, preys identified by Illumina/Solexa sequencing.

B1: truncated TGFBRIII (21-787)-YFPc (domain or fragment, UniProt Q03167 21-787)
chain: GPEPGALCELSPVSASHPVQALMESFTVLSGCASRGTTGLPQEVHVLNLRTAGQGPGQLQREVTLHLNPISSVHIHHKSVVFLLNSPHPLVWHLKTERLATGVSRLFLVSEGSVVQFSSANFSLTAETEERNFPHGNEHLLNWARKEYGAVTSFTELKIARNIYIKVGEDQVFPPKCNIGKNFLSLNYLAEYLQPKAAEGCVMSSQPQNEEVHIIELITPNSNPYSAFQVDITIDIRPSQEDLEVVKNLILILKCKKSVNWVIKSFDVKGSLKIIAPNSIGFGKESERSMTMTKSIRDDIPSTQGNLVKWALDNGYSPITSYTMAPVANRFHLRLENNAEEMGDEEVHTIPPELRILLDPGALPALQNPPIRGGEGQNGGLPFPFPDISRRVWNEEGEDGLPRPKDPVIPSIQLFPGLREPEEVQGSVDIALSVKCDNEKMIVAVEKDSFQASGYSGMDVTLLDPTCKAKMNGTHFVLESPLNGCGTRPRWSALDGVVYYNSIVIQVPALGDSSGWPDGYEDLESGDNGFPGDMDEGDASLFTRPEIVVFNCSLQQVRNPSSFQEQPHGNITFNMELYNTDLFLVPSQGVFSVPENGHVYVEVSVTKAEQELGFAIQTCFISPYSNPDRMSHYTIIENICPKDESVKFYSPKRVHFPIPQADMDKKRFSFVFKPVFNTSLLFLQCELTLCTKMEKHPQKLPKCVPPDEACTSLDASIIWAMMQNKKTFTKPLAVIHHEAESKEKGPSMKEPNPISPPIFHGLDTLTV
B1: the binding result in assay [1] was “binds”.

B2: TGFBRIII–YFPc (type III TGFβ receptor) (receptor, UniProt Q03167 21-851)
chain: GPEPGALCELSPVSASHPVQALMESFTVLSGCASRGTTGLPQEVHVLNLRTAGQGPGQLQREVTLHLNPISSVHIHHKSVVFLLNSPHPLVWHLKTERLATGVSRLFLVSEGSVVQFSSANFSLTAETEERNFPHGNEHLLNWARKEYGAVTSFTELKIARNIYIKVGEDQVFPPKCNIGKNFLSLNYLAEYLQPKAAEGCVMSSQPQNEEVHIIELITPNSNPYSAFQVDITIDIRPSQEDLEVVKNLILILKCKKSVNWVIKSFDVKGSLKIIAPNSIGFGKESERSMTMTKSIRDDIPSTQGNLVKWALDNGYSPITSYTMAPVANRFHLRLENNAEEMGDEEVHTIPPELRILLDPGALPALQNPPIRGGEGQNGGLPFPFPDISRRVWNEEGEDGLPRPKDPVIPSIQLFPGLREPEEVQGSVDIALSVKCDNEKMIVAVEKDSFQASGYSGMDVTLLDPTCKAKMNGTHFVLESPLNGCGTRPRWSALDGVVYYNSIVIQVPALGDSSGWPDGYEDLESGDNGFPGDMDEGDASLFTRPEIVVFNCSLQQVRNPSSFQEQPHGNITFNMELYNTDLFLVPSQGVFSVPENGHVYVEVSVTKAEQELGFAIQTCFISPYSNPDRMSHYTIIENICPKDESVKFYSPKRVHFPIPQADMDKKRFSFVFKPVFNTSLLFLQCELTLCTKMEKHPQKLPKCVPPDEACTSLDASIIWAMMQNKKTFTKPLAVIHHEAESKEKGPSMKEPNPISPPIFHGLDTLTVMGIAFAAFVIGALLTGALWYIYSHTGETAGRQQVPTSPPASENSSAAHSIGSTQSTPCSSSSTA
As for B2, the binding entry in assay [2] is “binds”.
